Among the data in PMC4709127, “Wuho Is a New Member in Maintaining Genome Stability through its Interaction with Flap Endonuclease 1” are binding values, retold here.

Amino acid sequences for entries named in this document (tags omitted).
UniProt P39748: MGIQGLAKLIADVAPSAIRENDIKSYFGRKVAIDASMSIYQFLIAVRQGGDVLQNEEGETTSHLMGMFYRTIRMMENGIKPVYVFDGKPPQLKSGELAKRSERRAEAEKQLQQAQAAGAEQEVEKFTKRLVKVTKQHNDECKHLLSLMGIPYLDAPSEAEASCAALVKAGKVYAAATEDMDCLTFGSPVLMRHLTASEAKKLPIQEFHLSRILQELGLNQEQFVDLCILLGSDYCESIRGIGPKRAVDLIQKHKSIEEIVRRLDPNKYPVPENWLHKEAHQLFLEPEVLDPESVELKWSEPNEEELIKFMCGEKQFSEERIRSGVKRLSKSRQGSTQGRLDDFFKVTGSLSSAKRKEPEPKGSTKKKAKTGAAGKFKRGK

Results are given in words; binding and its absence hold for the method and conditions named. Binding seen in cells or lysates may run through a third protein. A yes stands for co-enrichment or nearness to the bait. Other partners may have been found. Tags and fused reporters may be left off the sequences shown.

This assay has as its target T1, human Wuho protein (hWH) tagged with V5 and hexahistidine epitopes (human) (UniProt P57081).
T1 sequence: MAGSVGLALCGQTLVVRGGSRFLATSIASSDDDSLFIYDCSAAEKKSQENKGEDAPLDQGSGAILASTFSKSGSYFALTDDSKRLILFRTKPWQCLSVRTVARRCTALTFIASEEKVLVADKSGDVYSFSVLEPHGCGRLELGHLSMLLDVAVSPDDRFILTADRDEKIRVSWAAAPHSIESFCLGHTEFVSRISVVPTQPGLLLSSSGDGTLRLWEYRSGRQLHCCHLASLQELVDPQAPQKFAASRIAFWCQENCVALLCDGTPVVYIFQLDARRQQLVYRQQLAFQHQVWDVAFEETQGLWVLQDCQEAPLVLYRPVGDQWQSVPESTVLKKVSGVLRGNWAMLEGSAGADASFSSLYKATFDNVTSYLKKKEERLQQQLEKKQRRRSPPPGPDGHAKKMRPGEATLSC
Put plainly: affinity purification with mass spectrometry; nuclear extract of tetracycline-induced Flp-In-293 cells expressing hWH-V5-His6, anti-V5 agarose beads, 4°C overnight, NE buffer (20 mM Hepes pH 7.9, 400 mM NaCl, 0.2% NP-40); gel bands identified by mass spectrometry.

In the case of “flap endonuclease 1 (FEN1), endogenous (from UniProt P39748 1-380) (enzyme)”, the binding result is “binds”.
